Values of other authors as cited in PMC7181201, “Dual P-Glycoprotein and CA XII Inhibitors: A New Strategy to Reverse the P-gp Mediated Multidrug Resistance (MDR) in Cancer Cells” (Molecules, 2020).

Tested on: K562 cells
Design: method as in PMID 30947123
Settings: K562 parental cells ref 38; read-out: doxorubicin IC50; cited from earlier work

## COc1cccc2c1C(=O)c1c(O)c3c(c(O)c1C2=O)C[C@@](O)(C(=O)CO)C[C@@H]3O[C@H]1C[C@H](N)[C@H](O)[C@H](C)O1 [doxo, doxorubicin]
  IC50: 34 ± 8 nM
